The source of these data is the supplement of paper PMC4683952.

Where a name gives a salt, the structure may show the parent alone. The list shows a part of the results. Rule as the data show it: active = 2.5 or more and inactive = the rest. Most values lie within the scatter of the assay; repeated measurements hardly agree.

The subject of the test is Lgr5 (MarsCy1-Lgr5-EGFP, U2OS). Kind of test: cell-surface Lgr5 expression (SCi1 fluorescence, background-subtracted) relative to WT control (fold of WT control); higher = more Lgr5 at the plasma membrane. Conditions: U2OS MarsCy1-Lgr5-EGFP stable; treatment time: overnight; library: Prestwick; 20 µM.
As for `COc1cc([S+](C)[O-])ccc1-c1nc2cccnc2[nH]1` (stereo unspecified) [Sulmazole], the “cell-surface Lgr5 expression” value is inactive: 1.92.

Regarding `CCCCc1cc2ccccc2c(OCCN(C)C)n1` [Dimethisoquin hydrochloride], the “cell-surface Lgr5 expression” value was inactive: 1.13.

On to `Cc1cccc(C)c1NC(=O)C(C)N` (stereo unspecified) [Tocainide hydrochloride], for which the “cell-surface Lgr5 expression” value is inactive: 1.27.

For the compound `CN(C)C(=O)C(CCN1CCC(O)(c2ccc(Cl)cc2)CC1)(c1ccccc1)c1ccccc1` [Loperamide hydrochloride], the “cell-surface Lgr5 expression” value is inactive: 0.948.

With `CN[C@@H]1[C@@H](O[C@H]2O[C@H](CO)[C@@H](N)[C@H](O)[C@H]2O)OC2C[C@@H](N)[C@@H](O[C@H]3[C@H](O)[C@@H](O)[C@H](N)C[C@@H]3N)OC2[C@@H]1O` (stereo partly specified) [Apramycin], the “cell-surface Lgr5 expression” value was inactive: 1.23.

For the compound `Cc1c(-c2ccccc2)oc2c(C(=O)OCCN3CCCCC3)cccc2c1=O` [Flavoxate hydrochloride], the “cell-surface Lgr5 expression” value is inactive: 1.31.

With `NS(=O)(=O)c1cc2c(cc1Cl)NC(C(Cl)Cl)NS2(=O)=O` (stereo unspecified) [Trichlormethiazide], the “cell-surface Lgr5 expression” value is inactive: 1.89.

`CN[C@@H]1[C@H](O)[C@H](NC)[C@H]2O[C@@]3(O)C(=O)C[C@@H](C)O[C@H]3O[C@@H]2[C@H]1O` [Spectinomycin dihydrochloride]: the “cell-surface Lgr5 expression” value is inactive: 2.15.

`Cc1onc(-c2ccccc2Cl)c1C(=O)N[C@@H]1C(=O)N2[C@@H]1SC(C)(C)[C@@H]2C(=O)O` [Cloxacillin sodium salt]: the “cell-surface Lgr5 expression” value is inactive: 1.46.

`N[C@@H](C(=O)N[C@@H]1C(=O)N2C(C(=O)O)=C(Cl)CC[C@H]12)c1ccccc1` [Loracarbef]: the “cell-surface Lgr5 expression” value is inactive: 1.41.

Regarding `CN(C)CCC=C1c2ccccc2COc2ccccc21` [Doxepin hydrochloride], the “cell-surface Lgr5 expression” value was inactive: 1.17.

Regarding `CC(C)[N+](C)(CCOC(=O)C1c2ccccc2Oc2ccccc21)C(C)C` [Propantheline bromide], the “cell-surface Lgr5 expression” value is inactive: 0.324.

`Nc1ccccc1S(N)(=O)=O` [2-Aminobenzenesulfonamide]: the “cell-surface Lgr5 expression” value is inactive: 2.32.

As for `CCN(CC)CCNC(=O)c1cc(Cl)c(N)cc1OC` [Metoclopramide monohydrochloride], the “cell-surface Lgr5 expression” value was inactive: 1.51.

`CCOc1ccc2ccccc2c1C(=O)N[C@@H]1C(=O)N2[C@@H]1SC(C)(C)[C@@H]2C(=O)O` [Nafcillin sodium salt monohydrate]: the “cell-surface Lgr5 expression” value was inactive: 2.24.

`CN(C)C/C=C(/c1ccc(Br)cc1)c1cccnc1` [Zimelidine dihydrochloride monohydrate]: the “cell-surface Lgr5 expression” value is inactive: 1.45.

Take `CC(C)(CO)C(O)C(=O)NCCCO` (stereo unspecified) [Panthenol (D)]: the “cell-surface Lgr5 expression” value was inactive: 1.25.

Consider `Cn1cnc2c1c(=O)[nH]c(=O)n2C` [Theobromine], for which the “cell-surface Lgr5 expression” value is inactive: 1.88.

As for `CCC[C@@H]1C[C@@H](C(=O)N[C@@H]([C@H]2O[C@H](SC)[C@H](O)[C@@H](O)[C@H]2O)[C@H](C)Cl)N(C)C1` [Clindamycin hydrochloride], the “cell-surface Lgr5 expression” value is inactive: 1.13.

On to `O=C(N[C@H](CO)[C@H](O)c1ccc([N+](=O)[O-])cc1)C(Cl)Cl` [Chloramphenicol], for which the “cell-surface Lgr5 expression” value is inactive: 1.68.

On to `Cc1ccc2c(c1)c1c3n2CCNC3CCC1` (stereo unspecified) [Pirlindole mesylate], for which the “cell-surface Lgr5 expression” value was inactive: 1.72.

In the case of `COc1cc(C(=O)NCc2ccc(OCCN(C)C)cc2)cc(OC)c1OC` [Trimethobenzamide hydrochloride], the “cell-surface Lgr5 expression” value was inactive: 1.42.

`C1CCC(C(CC2CCCCN2)C2CCCCC2)CC1` (stereo unspecified) [Perhexiline maleate]: the “cell-surface Lgr5 expression” value is inactive: 1.78.

As to `CC(C)NCC(O)COc1ccc(CCOCC2CC2)cc1` (stereo unspecified) [Betaxolol hydrochloride], the “cell-surface Lgr5 expression” value is inactive: 0.926.

On to `CCc1nc(N)nc(N)c1-c1ccc(Cl)cc1` [Pyrimethamine], for which the “cell-surface Lgr5 expression” value is inactive: 0.955.

For the compound `CC(=O)[C@@]1(O)CC[C@H]2[C@@H]3C[C@H](C)C4=CC(=O)C=C[C@]4(C)[C@@]3(F)[C@@H](O)C[C@@]21C` [Fluorometholone], the “cell-surface Lgr5 expression” value is active: 3.04.

In the case of `O=C(O)c1cn(C2CC2)c2cc(N3CCNCC3)c(F)cc2c1=O` [Ciprofloxacin hydrochloride], the “cell-surface Lgr5 expression” value is inactive: 1.43.

In the case of `C1COC(NC(C2CC2)C2CC2)=N1` [Rilmenidine hemifumarate], the “cell-surface Lgr5 expression” value is inactive: 1.05.

With `C[C@H]1c2cccc(O)c2C(=O)C2=C(O)[C@]3(O)C(=O)C(C(N)=O)=C(O)[C@@H](N(C)C)[C@@H]3[C@@H](O)[C@@H]21` [Doxycycline hydrochloride], the “cell-surface Lgr5 expression” value was inactive: 0.993.

For `CCCC1C(=O)N2C(N(C)C)=Nc3ccc(C)cc3N2C1=O` (stereo unspecified) [Azapropazone], the “cell-surface Lgr5 expression” value was inactive: 1.07.

As to `C[C@](N)(Cc1ccc(O)c(O)c1)C(=O)O` [Methyldopa (L,-)], the “cell-surface Lgr5 expression” value is inactive: 1.42.

Turning to `c1cnc(N2CCN(Cc3ccc4c(c3)OCO4)CC2)nc1` [Piribedil hydrochloride], the “cell-surface Lgr5 expression” value was inactive: 0.68.

Regarding `CCc1c(C)[nH]c2c1C(=O)C(CN1CCOCC1)CC2` (stereo unspecified) [Molindone hydrochloride], the “cell-surface Lgr5 expression” value was inactive: 1.43.

Regarding `CCC1(c2ccccc2)NC(=O)N(C)C1=O` (stereo unspecified) [Mephenytoin], the “cell-surface Lgr5 expression” value is inactive: 1.27.

For `Cc1ncc(CO)c(CO)c1O` [Pyridoxine hydrochloride], the “cell-surface Lgr5 expression” value is inactive: 2.02.

Take `N=C(N)NS(=O)(=O)c1ccc(N)cc1` [Sulfaguanidine]: the “cell-surface Lgr5 expression” value was inactive: 1.54.

For the compound `CC1=C(/C=C/C(C)=C/C=C/C(C)=C/C(=O)O)C(C)(C)CCC1` [Retinoic acid], the “cell-surface Lgr5 expression” value is inactive: 1.43.

For the compound `NC(=O)c1cc[n+](CC2=C(C(=O)[O-])N3C(=O)[C@@H](NC(=O)[C@@H](c4ccccc4)S(=O)(=O)O)[C@H]3SC2)cc1` [Cefsulodin sodium salt], the “cell-surface Lgr5 expression” value was inactive: 2.06.

With `Clc1ccc(Cn2c(CN3CCCC3)nc3ccccc32)cc1` [Clemizole hydrochloride], the “cell-surface Lgr5 expression” value was inactive: 1.19.

Consider `COc1cc2nc(N(C)CCCNC(=O)C3CCCO3)nc(N)c2cc1OC` (stereo unspecified) [Alfuzosin hydrochloride], for which the “cell-surface Lgr5 expression” value is inactive: 1.72.

Take `O=C(O)/C=C/c1ccc(O)c(O)c1` [Caffeic acid]: the “cell-surface Lgr5 expression” value is inactive: 2.34.

`CC(=O)O[C@]1(C(C)=O)CC[C@H]2[C@@H]3C=C(Cl)C4=CC(=O)[C@@H]5C[C@@H]5[C@]4(C)[C@H]3CC[C@@]21C` [Cyproterone acetate]: the “cell-surface Lgr5 expression” value was inactive: 0.948.

As for `O=C(O)COCCN1CCN(C(c2ccccc2)c2ccc(Cl)cc2)CC1` (stereo unspecified) [Cetirizine dihydrochloride], the “cell-surface Lgr5 expression” value was active: 3.85.

Regarding `N[C@@H]1CONC1=O` [D-cycloserine], the “cell-surface Lgr5 expression” value was inactive: 1.43.

Consider `CN1C(=O)CC(c2ccccc2)C1=O` (stereo unspecified) [Phensuximide], for which the “cell-surface Lgr5 expression” value is inactive: 1.25.

On to `Clc1ccc(CSC(Cn2ccnc2)c2ccc(Cl)cc2Cl)cc1` (stereo unspecified) [Sulconazole nitrate], for which the “cell-surface Lgr5 expression” value is inactive: 1.62.

With `C[n+]1cc2c3c(ccc2c2ccc4cc5c(cc4c21)OCO5)OCO3` [Sanguinarine], the “cell-surface Lgr5 expression” value is inactive: 0.361.

On to `N=C(N)NC(=O)Cc1c(Cl)cccc1Cl` [Guanfacine hydrochloride], for which the “cell-surface Lgr5 expression” value is inactive: 1.55.

For the compound `CN(C)CCOC(c1ccccc1)c1ccccc1` [Diphenhydramine hydrochloride], the “cell-surface Lgr5 expression” value was inactive: 1.63.

For the compound `CC(=O)[C@H]1CC[C@H]2[C@@H]3CCC4=CC(=O)CC[C@]4(C)[C@H]3CC[C@]12C` [Progesterone], the “cell-surface Lgr5 expression” value is inactive: 0.963.

For `NC(Cc1cc(I)c(Oc2cc(I)c(O)c(I)c2)c(I)c1)C(=O)O` (stereo unspecified) [Thyroxine (L)], the “cell-surface Lgr5 expression” value is inactive: 1.32.

Regarding `CN(C)CC/C=C1/c2ccccc2Sc2ccc(Cl)cc21` [Chlorprothixene hydrochloride], the “cell-surface Lgr5 expression” value was inactive: 2.11.

Take `C[C@]12CC[C@@H]3c4ccc(O)cc4CC[C@H]3[C@@H]1CC[C@@H]2O` [Estradiol-17 beta]: the “cell-surface Lgr5 expression” value is inactive: 1.45.

In the case of `CCCN(CCC)S(=O)(=O)c1ccc(C(=O)O)cc1` [Probenecid], the “cell-surface Lgr5 expression” value is active: 2.99.

Regarding `COc1ccc(CCN(C)CCCC(C#N)(c2ccc(OC)c(OC)c2)C(C)C)cc1OC` (stereo unspecified) [Verapamyl hydrochloride], the “cell-surface Lgr5 expression” value is inactive: 0.822.

In the case of `CCCc1cc(=O)[nH]c(=S)[nH]1` [Propylthiouracil], the “cell-surface Lgr5 expression” value is inactive: 2.11.

For the compound `C[N+]1(CCCCC[N+]2(C)CCCC2)CCCC1` [Pentolinium bitartrate], the “cell-surface Lgr5 expression” value is active: 2.53.

Consider `CCCCCCC[N+](CC)(CC)CCCCc1ccc(Cl)cc1` [Clofilium tosylate], for which the “cell-surface Lgr5 expression” value was inactive: 0.859.

Consider `CNCCCC1c2ccccc2C=Cc2ccccc21` [Protriptyline hydrochloride], for which the “cell-surface Lgr5 expression” value is inactive: 1.59.

Turning to `C[C@]12CCC(=O)C=C1CC[C@@H]1[C@@H]2[C@@H](O)C[C@@]2(C)[C@H]1CC[C@]2(O)C(=O)CO` [Hydrocortisone base], the “cell-surface Lgr5 expression” value is inactive: 1.53.

Consider `COc1cccc2c1C(=O)c1c(O)c3c(c(O)c1C2=O)C[C@@](O)(C(=O)CO)C[C@@H]3O[C@H]1C[C@H](N)[C@H](O)[C@H](C)O1` [Doxorubicin hydrochloride], for which the “cell-surface Lgr5 expression” value was inactive: 0.101.

In the case of `CC1(C)S[C@@H]2[C@H](NC(=O)[C@H](N)c3ccc(O)cc3)C(=O)N2[C@H]1C(=O)O` [Amoxicillin], the “cell-surface Lgr5 expression” value is inactive: 1.59.

On to `CN[C@@H]1[C@H](O[C@H]2[C@H](O[C@H]3[C@H](O)[C@@H](O)[C@H](N=C(N)N)[C@@H](O)[C@@H]3N=C(N)N)O[C@@H](C)[C@]2(O)C=O)O[C@@H](CO)[C@H](O)[C@H]1O` [Streptomycin sulfate], for which the “cell-surface Lgr5 expression” value is inactive: 1.98.

Take `Fc1ccc(C(c2ccc(F)cc2)N2CCN(C/C=C/c3ccccc3)CC2)cc1` [Flunarizine dihydrochloride]: the “cell-surface Lgr5 expression” value is inactive: 1.28.

Regarding `CC(=O)Nc1cc2ccccc2oc1=O` [3-Acetamidocoumarin], the “cell-surface Lgr5 expression” value is inactive: 0.837.

For `N=C(N)c1ccc(OCCCCCOc2ccc(C(=N)N)cc2)cc1` [Pentamidine isethionate], the “cell-surface Lgr5 expression” value was inactive: 1.74.
